Assay results published in US9993536B2, “Peptides and combination of peptides and scaffolds for use in immunotherapy against renal cell carcinoma (RCC) and other cancers” (immatics biotechnologies GmbH, priority 2015, dated 2018).
For some assays here: For expression read-outs the peptide stands for its source gene, whose mRNA was measured; the gene is not named for every peptide.

Assays:
[1] = system: RCC samples; assay: Label-free relative LC-MS quantitation of HLA-presented peptides (presentation profile/score), RCC vs normal tissues; parameters: species or system human; key: very highly over-presented on tumors compared to a panel of normal tissues (+++); highly over-presented on tumors compared to a panel of normal tissues (++); over-presented on tumors compared to a panel of normal tissues (+); conditions: tumors (RCC) compared to a panel of normal tissues
[2] = system: tumor samples of other tumor types; assay: LC-MS detection/over-presentation of peptides on additional tumor types vs normal tissues; parameters: species or system human; conditions: for Other relevant organs/diseases: additional tumor types: over-presented on more than 5% of measured tumor samples, or presented on more than 5% with ratio of geometric means tumor vs normal tissues larger than 3; for Additional Entities: additional tumor types: over-presentation on more than 5% of measured tumor samples, or presentation on more than 5% with ratio of geometric means tumor vs normal larger than 3
[3] = system: source genes (mRNA) in RCC and normal tissues; assay: Expression profiling of genes encoding the peptides (Affymetrix microarray); parameters: species or system human; key: very highly over-expressed in tumors compared to a panel of normal tissues (+++); highly over-expressed in tumors compared to a panel of normal tissues (++); over-expressed in tumors compared to a panel of normal tissues (+); conditions: tumors compared to a panel of normal tissues

Substance | Peptide Presentation (presentation score) [1] | Other relevant organs/diseases [2] | Gene Expression (expression score) [3] | Additional Entities [2]
94: peptide found in CYB5A (gene looked up) (ILHHKVYDL; listed as Homo sapiens) [compound 94] | + | Liver | + | 
139: peptide found in ACLY (gene looked up) (ILNVDGLIGV; listed as Homo sapiens) [compound 139] | ++ | Brain, Colon, Rectum, Liver, Prostate | + | 
37: peptide found in ABCC3 (gene looked up) (VLAPVILML; listed as Homo sapiens) [compound 37] | +++ | Lung, Colon, Rectum, Pancreas, Ovary | + | 
101: peptide found in FLT1 (gene looked up) (HIYDKAFITV; listed as Homo sapiens) [compound 101] | ++ | Liver, Ovary | ++ | SCLC, BRCA
62: peptide found in SLC47A1 (gene looked up) (VLAGPAFLVQL; listed as Homo sapiens) [compound 62] | +++ |  | + | Uterine Cancer
7: peptide found in EGLN3 (gene looked up) (FLLSLIDRL; listed as Homo sapiens) [compound 7] | +++ |  | ++ | 
50: peptide found in ITGA3 (gene looked up) (SLSDHIVLL; listed as Homo sapiens) [compound 50] | + | Lung | + | PC, Melanoma, Esophageal Cancer, Urinary bladder cancer, Gallbladder Cancer, Bile Duct Cancer
120: peptide found in SLC22A2 (gene looked up) (GLAGDNIYL; listed as Homo sapiens) [compound 120] | +++ |  | + | 
51: peptide found in ITGA3 (gene looked up) (NLWPMILTL; listed as Homo sapiens) [compound 51] | +++ | Lung, Pancreas, Esophagus | + | Melanoma, Uterine Cancer, Gallbladder Cancer, Bile Duct Cancer, Esophageal Cancer
131: peptide found in PLIN2 (gene looked up) (VMAGDIYSV; listed as Homo sapiens) [compound 131] | ++ | Lung, Liver, Pancreas, Esophagus | + | 
18: peptide found in ACLY (gene looked up) (YVLDLAAKV; listed as Homo sapiens) [compound 18] | +++ |  | + | SCLC, CLL, BRCA, Melanoma, Uterine Cancer, NHL
93: peptide found in PLIN2 (gene looked up) (GVMAGDIYSV; listed as Homo sapiens) [compound 93] | ++ | Lung, Colon, Rectum, Liver, Esophagus | + | Gallbladder Cancer, Bile Duct Cancer, PC
